From patent publication US9655882B2, “Compositions and methods for treatment of neurodegenerative disease” (THE JOHNS HOPKINS UNIVERSITY, priority 2008, dated 2017)
At least one structure is not confirmed: it was looked up by name or label, or the drawing left a doubt.

Test system: mouse RGCs
Experiment: RGC survival in purified primary mouse RGC culture (high-content screening, Calcein AM/Hoechst/Ethidium Homodimer-1)
Assay type: cell-based
Details: Example 4, clinical protein kinase inhibitors

C[C@]12O[C@H](C[C@]1(O)CO)n1c3ccccc3c3c4c(c5c6ccccc6n2c5c31)CNC4=O [Lestaurtinib]
pro-surviving activity on RGCs: significant pro-surviving activity on RGCs, albeit to a lesser extent than sunitinib
